Among all 580,000 compounds or so, about 6,100 (1.1%) were called active. This list was built around the results that the source calls inconclusive (neither active nor inactive); the mix of calls is not that of the screen. The call rests on the fitted dose curve; in most records, active means well fitted inhibition curve with a large enough effect; inconclusive means small, poorly fitted or top-dose-only effect, or another doubt; inactive means no such curve, though single readings can be large or run the other way. Potencies of inconclusive entries are doubtful fits and often do not repeat.
Target: Polyunsaturated fatty acid lipoxygenase ALOX12 (Homo sapiens) (UniProt P18054)
Assay: Primary qHTS assay for inhibitors of human arachidonate 12S-lipoxygenase (ALOX12): Round 2
Conditions: purified 12hLO, xylenol orange hydroperoxide absorbance; activity change, negative = inhibition: at 108 µM (top of the series) unless noted
Method in brief: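 Purified human 12hLO at 150 nM in 25 mM Hepes, 0.01% Triton X-100, pH 7.0, preincubated 15 min at room temperature with compound. Reaction started with 40 uM arachidonic acid, 30 min at room temperature. Hydroperoxide measured by Fe-xylenol orange, 573/405 nm absorbance ratio.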
On the % scale 0 is the no-effect control and ±100 the full control effect; potency means the concentration at half of the fitted maximal effect.

Amino acid sequences for entries named in this document (tags omitted). A change or cut given only in a name is not applied to a line headed by its entry.
UniProt P18054: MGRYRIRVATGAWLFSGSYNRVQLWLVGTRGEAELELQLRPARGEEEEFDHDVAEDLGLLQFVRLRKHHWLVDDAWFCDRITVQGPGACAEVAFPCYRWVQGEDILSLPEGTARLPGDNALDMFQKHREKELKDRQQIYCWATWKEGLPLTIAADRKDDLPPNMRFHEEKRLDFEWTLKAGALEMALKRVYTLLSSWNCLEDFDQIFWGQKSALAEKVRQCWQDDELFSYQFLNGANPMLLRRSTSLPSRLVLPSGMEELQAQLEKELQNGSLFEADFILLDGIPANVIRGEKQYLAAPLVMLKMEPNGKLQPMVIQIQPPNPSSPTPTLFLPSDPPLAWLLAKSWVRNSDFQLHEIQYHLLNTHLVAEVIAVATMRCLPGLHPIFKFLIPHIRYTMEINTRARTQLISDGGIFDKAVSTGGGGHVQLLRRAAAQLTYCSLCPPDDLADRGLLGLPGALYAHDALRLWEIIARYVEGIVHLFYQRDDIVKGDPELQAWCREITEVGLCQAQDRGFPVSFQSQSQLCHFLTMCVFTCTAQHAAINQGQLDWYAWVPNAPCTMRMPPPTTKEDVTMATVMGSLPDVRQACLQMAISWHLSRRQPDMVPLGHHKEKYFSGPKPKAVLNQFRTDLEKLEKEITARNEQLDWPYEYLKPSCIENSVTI

Compound | activity change, negative = inhibition | Potency
Cc1ccc(S(=O)(=O)CCC(=O)Nc2nc3c(s2)CCCC3)cc1 | inactive: 268% | 
COc1ccc2[nH]c(CO)cc2c1 |  | active: 25.1 µM
Cn1c(NCc2ccncc2)nc2cc(-c3ccsc3)sc2c1=O | inactive: 10.1% | 
COc1ccc(Nc2cc3[nH]c(-c4ccc(C(=O)N(C)C)cc4)cc3cn2)c(OC)c1 | inactive: -5.33% | 
CCCN1CCCC2(Cc3ccccc3CN(C(C)=O)C2)C1 (stereo unspecified) |  | inconclusive: 100 µM [inhibitor, partial curve, poor fit]
COc1ccc(CN2C(=O)C(n3c(C)ccc3C)c3cc(OC(F)(F)F)ccc32)cc1 (stereo unspecified) |  | active: 39.8 µM
CC(C)(C)c1ccc(-c2cc(-c3ccccc3O)[nH]n2)cc1 |  | inconclusive: 5.01 µM [inhibitor, full curve]
CN(Cc1ccccc1)C(=O)CCCc1c[nH]c2ccccc12 | inactive: 2.51% | 
N#CCSc1nccc(/C=C/c2ccccc2)n1 |  | inconclusive: 100 µM [inhibitor, single point]
O=C(NCCc1nc2ccccc2[nH]1)c1ccc([N+](=O)[O-])cc1 | inactive: 22.5% | 
CC(C)N1C(=O)C2(CCCCC2)C1C(=O)N1CCN(c2ccccc2)CC1 (stereo unspecified) | inactive: -4.47% | 
COc1ccc(-n2c(CNC(=O)COc3ccc(Cl)cc3Cl)n[nH]c2=S)cc1 |  | inconclusive: 44.7 µM [inhibitor, partial curve]
CCCCCC/C(CCCCCCC/C(CCCCCC)=N/NC(N)=O)=N/NC(N)=O |  | inconclusive: 12.6 µM [inhibitor, full curve]
COC(CNC(=O)c1ccc(Cn2c(=S)[nH]c3cc4c(cc3c2=O)OCO4)cc1)OC |  | inconclusive: 100 µM [inhibitor, partial curve, poor fit]
CC(C)c1cc(C(=O)N(C)C2CCCN(Cc3ccccc3F)C2)n(C)n1 (stereo unspecified) |  | inconclusive: 56.2 µM [inhibitor, partial curve, poor fit]
COC(=O)N/N=C(\C)c1ccco1 | inactive: -3.87% | 
Fc1ccc(N/N=C/C(Br)=C/c2ccccc2)c(F)c1 |  | inconclusive: 10 µM [inhibitor, full curve, poor fit]
COc1ccc(C2c3ccc4ccccc4c3Oc3ncn(CCCN(C)C)c(=N)c32)cc1 (stereo unspecified) |  | inconclusive: 79.4 µM [inhibitor, partial curve, poor fit]
Cc1nn(CC(O)c2ccccc2F)c(=O)c2ccccc12 (stereo unspecified) |  | inconclusive: 56.2 µM [inhibitor, partial curve, poor fit]
CCc1cccc(CC)c1-n1c(-c2cccnc2)n[nH]c1=S |  | inconclusive: 100 µM [inhibitor, single point]
N#Cc1cccnc1N1CCC(CO)(Cc2ccccc2C(F)(F)F)CC1 |  | inconclusive: 89.1 µM [inhibitor, single point]

Some of the entries so far, tab-delimited:
Compound	activity change, negative = inhibition	Potency
CCCN1CCCC2(Cc3ccccc3CN(C(C)=O)C2)C1 (stereo unspecified)		inconclusive: 100 µM [inhibitor, partial curve, poor fit]
COc1ccc(CN2C(=O)C(n3c(C)ccc3C)c3cc(OC(F)(F)F)ccc32)cc1 (stereo unspecified)		active: 39.8 µM
